Results taken from article PMC10163288.
This is one part of the list.

B1: il2ra_site2_3nfp_sap_15_mot_HHH_b2_06897_000000042_0001_40_57_H_._1a8b5531b1c5c0995b8d0dfb01d8624e_0001_0001_0000200014_0000001_0_0001 (protein)
chain: SSSSDVERYIKAALALAKRAAERNDPQAERLLELIRAAIEDAGDEEAKELLEEIERLLRELSSSS
B2: il2ra_site1_2b5i_sap_20_mot_HHH_b2_01776_af2_000000178_0001_1_14_H_._HHH_b2_00329_0001_0000100002_0000001_0_0001 (protein)
chain: SSSSDEANRELVRFIWELFFRFGLSAEQARELDQLAAELLDRGVSVEEIKELLRELAEELSSSSS
B3: il2ra_site2_2erj_normal_mot_HHH_b1_03609_af2_000000077_0001_42_55_H_._HHH_b1_05140_0001_0000100007_0000001_0 (protein)
chain: SSSSSDEEEVQRLLEEAKELLEEGNPEEALEILREASVRAFRANNFELWSLLAELSREVASSSSS
B4: il2ra_site2_3nfp_sap_15_mot_HHH_b1_02084_000000020_0001_36_55_H_._dc0e4c8b9eb78cb05ea10a80a584d50d_0001_0001_0000700043_0000001_0_0001 (protein)
chain: SSSSEEERVEELIQEAEKLLEEGDPSEAAQLVLEASEIAARLNDPELARKVLELFEAIQNNSSSS
B5: il2ra_site1_2b5i_normal_mot_f5ff40796168375b462bec8614a1db4a_0001_1_000000138_0001_53_65_H_._HHH_b1_05434_af2_0001_0000100002_0000001_0_af2pred_dldesign_0_af2pr … (protein)
chain: SSSSSSGSRELIRELIEKAKELPDKREAYRVLRMALRLARKAGDEELLAEVEALLAELSSSSSSS
B6: il2ra_site2_3nfp_sap_22_mot_HHH_b1_00940_af2_000000266_0001_1_16_H_._HHH_b1_06086_0001_0000600043_0000001_0_0001 (protein)
chain: SDAEHVELALRLIKAHALIAGDEEVERIVKELEELLEEAKEKNDEELLREVAERANELAERVANS
B7: il2ra_site1_2b5i_sap_10_mot_HHH_b1_06258_af2_000000112_0001_42_56_H_._HHH_b1_01191_0001_0000300026_0000001_0_0001_af2pred_dldesign_0_af2pred (protein)
chain: SSSSSSAKEVLDLFEEANRLYQAGKEEEAKELLEKALELAKKAGNPSLVRFVQACLEALESSSSS
B8: il2ra_site2_2erj_normal_mot_HHH_b2_05804_000000098_0001_44_58_H_._HHH_b1_00545_0001_0000300010_0000001_1 (protein)
chain: SSSSSDEEKEVWERVAELLVRALEVDEEEVRKLLEEARELAEEANDPFLERYIEFVRRSHSSSSS
B9: il2ra_site1_1z92_sap_13_mot_HHH_b1_07881_000000176_0001_43_56_H_._HHH_b2_04254_0001_0000100009_0000001_0_0001_af2pred_0001_af2pred_1 (protein)
chain: SSSSSSEEERIQEASEIFTEAQKIKDKEEVRKLLEEALELAEKARDENDRKDIERYLRALSSSSS
B10: il2ra_site1_1z92_sap_17_mot_HHH_b1_00661_af2_000000033_0001_38_50_H_._HHH_b2_00969_af2_0001_0000300012_0000001_0_0001_af2pred_0001_af2pred (protein)
chain: DEEYEELIEELRRRGLSPEEIVEILLEFIRKEARLPPRLALQLLRQVLRRLGDPELVQIVRELLE
B11: il2ra_site2_2erj_normal_mot_HHH_b1_07806_000000211_0001_42_56_H_._HHH_b2_07722_0001_0000200021_0000001_0 (protein)
chain: SSSSSEIVRRVYELLERADQAIQEGDEEAVRKIIEELEELAEKFENRAIEWAAEALERQLGSSSS
B12: il2ra_site2_2erj_sap_9_mot_HHH_b1_07584_000000201_0001_42_55_H_._HHH_b2_03843_af2_0001_0000600005_0000001_0_0001_af2pred_0001_1_af2pred_swapped (protein)
chain: PEELLELLRRALKYLKSPLAEELLRVLEELLERGVPPEEIEEELKRVAQELNDPDLERAVKAAGP
B13: il2ra_site1_3nfp_sap_12_mot_e80b558ee5422d85aa46efdc370d0602_0001_af2_000000114_0001_54_65_H_._HHH_b1_00120_0001_0001000036_0000001_0_0001 (protein)
chain: SSSEEEREKVREELEEIAEELGIDPHLVKAALRAWEAFVRAGVDAEEAREAARDALERWWEGSSS
B14: il2ra_site1_2b5i_sap_8_mot_HHH_b2_03607_af2_000000052_0001_1_19_H_._HHH_b2_00963_0001_0000100002_0000001_0_0001_af2pred_dldesign_0_af2pred (protein)
chain: SSSSSSSEARKLIKELEAAVKAEDKEKIEELLKKLEEYAEKHGDKFAKWIVEQVKEELSSSSSSS
B15: il2ra_site2_3nfp_sap_20_mot_HHH_b2_08110_af2_000000162_0001_23_39_H_._4d6df6f985955b7c69c184668ae98992_0001_1_af2_0001_0000300012_0000001_0_0001 (protein)
chain: SSSSSDDHEAYERVVELLKQANRIEDPEEVERLLEEAERLAEEANSPLLRRSVEFVARALSSSSS
B16: il2ra_site2_2erj_sap_30_mot_HHH_b2_00938_af2_000000099_0001_43_55_H_._c0f0c6b645b03e3acbc3a7421e1f7935_0001_1_af2_0001_0000300023_0000001_0_0001 (protein)
chain: SSSSDRLEELLERAEELIEEGDPEEAHKVLREAAEIAFKEGDFETFSKIAELLREVAQLESSSSS
B17: il2ra_site1_2b5i_normal_mot_HHH_b2_04910_000000118_0001_1_19_H_._HHH_b2_01005_0001_0000400029_0000001_0_af2pred_dldesign_0_af2pred (protein)
chain: SSSSSPKYEELLRLIKEAEALYKAGKPEEAKEKLEEAKKLAEELGMTSLLKMIELALAEISSSSS
B18: il2ra_site2_3nfp_sap_11_mot_HHH_b1_00660_af2_000000090_0001_40_57_H_._HHH_b1_04028_0001_0000200005_0000001_0_0001 (protein)
chain: SSSSSDEEIQERVEELLEEARHVEDPEELRRILAEAAHLAFELNDPELFYKIAEAVYEIRSSSSS
B19: il2ra_site2_2erj_sap_9_mot_HHH_b1_07562_000000147_0001_41_55_H_._HHH_b2_04125_0001_0000200012_0000001_0_0001 (protein)
chain: SSSSDEEEREELKQIVEEIVEEFGLSERDRELLEESAKIALELGTSVELIEEFLRLVAEALSSSS

Target: il2ra, P01589
Test: yeast display titration

Apparent Kd, inactive:
B1 > 1220 nM
B2 no binding seen
B3 no binding seen
B4 no binding seen
B5 no binding seen
B6 no binding seen
B7 no binding seen
B8 no binding seen
B9 no binding seen
B10 no binding seen
B11 no binding seen
B12 no binding seen
B13 no binding seen
B14 no binding seen
B15 no binding seen
B16 no binding seen
B17 no binding seen
B18 no binding seen
B19 no binding seen

Quoted at random: two entries already listed, in no set order.
Apparent Kd, inactive:
B19 no binding seen
B5 no binding seen
